Source: the supplement of paper PMC7666118
This is one part of the list.

Chains of the proteins cited; added tags and fusions are not shown. Lines headed by an entry give the natural chain unless they say otherwise; changes in a name come on top.
UniProt Q969H6: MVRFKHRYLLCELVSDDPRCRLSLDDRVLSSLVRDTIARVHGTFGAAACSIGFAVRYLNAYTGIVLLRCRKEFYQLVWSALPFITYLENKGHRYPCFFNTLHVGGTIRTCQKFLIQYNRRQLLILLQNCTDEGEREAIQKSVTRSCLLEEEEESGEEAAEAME
UniProt Q9UKY4: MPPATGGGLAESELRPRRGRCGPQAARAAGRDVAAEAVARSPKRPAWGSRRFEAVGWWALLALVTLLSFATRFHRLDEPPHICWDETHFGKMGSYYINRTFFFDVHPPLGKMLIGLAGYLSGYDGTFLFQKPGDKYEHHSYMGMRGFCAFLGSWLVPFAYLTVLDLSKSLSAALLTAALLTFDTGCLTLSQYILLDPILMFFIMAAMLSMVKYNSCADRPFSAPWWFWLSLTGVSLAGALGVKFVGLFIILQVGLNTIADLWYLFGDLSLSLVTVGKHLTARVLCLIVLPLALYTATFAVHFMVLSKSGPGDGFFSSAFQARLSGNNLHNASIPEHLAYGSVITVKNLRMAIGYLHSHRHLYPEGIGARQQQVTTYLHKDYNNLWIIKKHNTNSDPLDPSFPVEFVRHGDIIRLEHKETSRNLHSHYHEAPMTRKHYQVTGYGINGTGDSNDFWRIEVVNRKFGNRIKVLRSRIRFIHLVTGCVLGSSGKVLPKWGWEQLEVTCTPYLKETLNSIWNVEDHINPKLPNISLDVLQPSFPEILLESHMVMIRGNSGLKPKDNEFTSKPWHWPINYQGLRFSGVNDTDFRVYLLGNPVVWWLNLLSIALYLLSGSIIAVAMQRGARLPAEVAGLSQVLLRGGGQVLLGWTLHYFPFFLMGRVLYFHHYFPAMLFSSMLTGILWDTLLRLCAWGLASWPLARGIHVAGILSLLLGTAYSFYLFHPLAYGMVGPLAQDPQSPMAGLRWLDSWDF
UniProt Q9H8W4: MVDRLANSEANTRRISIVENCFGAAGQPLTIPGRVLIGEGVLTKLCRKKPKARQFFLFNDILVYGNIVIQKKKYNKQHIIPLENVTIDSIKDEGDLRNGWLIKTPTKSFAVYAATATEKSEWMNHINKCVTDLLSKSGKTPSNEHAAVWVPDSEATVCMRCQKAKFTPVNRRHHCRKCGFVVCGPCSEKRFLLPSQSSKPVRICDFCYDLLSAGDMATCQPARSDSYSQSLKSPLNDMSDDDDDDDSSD
UniProt Q9P215: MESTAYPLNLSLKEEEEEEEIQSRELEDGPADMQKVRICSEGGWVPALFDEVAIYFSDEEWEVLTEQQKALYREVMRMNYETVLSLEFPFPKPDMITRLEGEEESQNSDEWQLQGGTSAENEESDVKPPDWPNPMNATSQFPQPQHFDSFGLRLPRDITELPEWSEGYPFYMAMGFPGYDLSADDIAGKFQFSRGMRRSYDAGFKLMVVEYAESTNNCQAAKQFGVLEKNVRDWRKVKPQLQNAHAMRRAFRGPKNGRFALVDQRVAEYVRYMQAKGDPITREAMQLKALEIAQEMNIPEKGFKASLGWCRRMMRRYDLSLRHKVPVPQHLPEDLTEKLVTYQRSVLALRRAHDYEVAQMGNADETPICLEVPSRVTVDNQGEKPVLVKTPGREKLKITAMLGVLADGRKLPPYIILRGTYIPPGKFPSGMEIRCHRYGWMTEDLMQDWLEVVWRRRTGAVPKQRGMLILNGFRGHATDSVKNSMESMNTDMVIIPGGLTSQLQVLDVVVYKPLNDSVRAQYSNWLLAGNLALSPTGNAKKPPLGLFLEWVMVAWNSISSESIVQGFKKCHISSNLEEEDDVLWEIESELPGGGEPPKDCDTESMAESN
UniProt Q9Y4D7: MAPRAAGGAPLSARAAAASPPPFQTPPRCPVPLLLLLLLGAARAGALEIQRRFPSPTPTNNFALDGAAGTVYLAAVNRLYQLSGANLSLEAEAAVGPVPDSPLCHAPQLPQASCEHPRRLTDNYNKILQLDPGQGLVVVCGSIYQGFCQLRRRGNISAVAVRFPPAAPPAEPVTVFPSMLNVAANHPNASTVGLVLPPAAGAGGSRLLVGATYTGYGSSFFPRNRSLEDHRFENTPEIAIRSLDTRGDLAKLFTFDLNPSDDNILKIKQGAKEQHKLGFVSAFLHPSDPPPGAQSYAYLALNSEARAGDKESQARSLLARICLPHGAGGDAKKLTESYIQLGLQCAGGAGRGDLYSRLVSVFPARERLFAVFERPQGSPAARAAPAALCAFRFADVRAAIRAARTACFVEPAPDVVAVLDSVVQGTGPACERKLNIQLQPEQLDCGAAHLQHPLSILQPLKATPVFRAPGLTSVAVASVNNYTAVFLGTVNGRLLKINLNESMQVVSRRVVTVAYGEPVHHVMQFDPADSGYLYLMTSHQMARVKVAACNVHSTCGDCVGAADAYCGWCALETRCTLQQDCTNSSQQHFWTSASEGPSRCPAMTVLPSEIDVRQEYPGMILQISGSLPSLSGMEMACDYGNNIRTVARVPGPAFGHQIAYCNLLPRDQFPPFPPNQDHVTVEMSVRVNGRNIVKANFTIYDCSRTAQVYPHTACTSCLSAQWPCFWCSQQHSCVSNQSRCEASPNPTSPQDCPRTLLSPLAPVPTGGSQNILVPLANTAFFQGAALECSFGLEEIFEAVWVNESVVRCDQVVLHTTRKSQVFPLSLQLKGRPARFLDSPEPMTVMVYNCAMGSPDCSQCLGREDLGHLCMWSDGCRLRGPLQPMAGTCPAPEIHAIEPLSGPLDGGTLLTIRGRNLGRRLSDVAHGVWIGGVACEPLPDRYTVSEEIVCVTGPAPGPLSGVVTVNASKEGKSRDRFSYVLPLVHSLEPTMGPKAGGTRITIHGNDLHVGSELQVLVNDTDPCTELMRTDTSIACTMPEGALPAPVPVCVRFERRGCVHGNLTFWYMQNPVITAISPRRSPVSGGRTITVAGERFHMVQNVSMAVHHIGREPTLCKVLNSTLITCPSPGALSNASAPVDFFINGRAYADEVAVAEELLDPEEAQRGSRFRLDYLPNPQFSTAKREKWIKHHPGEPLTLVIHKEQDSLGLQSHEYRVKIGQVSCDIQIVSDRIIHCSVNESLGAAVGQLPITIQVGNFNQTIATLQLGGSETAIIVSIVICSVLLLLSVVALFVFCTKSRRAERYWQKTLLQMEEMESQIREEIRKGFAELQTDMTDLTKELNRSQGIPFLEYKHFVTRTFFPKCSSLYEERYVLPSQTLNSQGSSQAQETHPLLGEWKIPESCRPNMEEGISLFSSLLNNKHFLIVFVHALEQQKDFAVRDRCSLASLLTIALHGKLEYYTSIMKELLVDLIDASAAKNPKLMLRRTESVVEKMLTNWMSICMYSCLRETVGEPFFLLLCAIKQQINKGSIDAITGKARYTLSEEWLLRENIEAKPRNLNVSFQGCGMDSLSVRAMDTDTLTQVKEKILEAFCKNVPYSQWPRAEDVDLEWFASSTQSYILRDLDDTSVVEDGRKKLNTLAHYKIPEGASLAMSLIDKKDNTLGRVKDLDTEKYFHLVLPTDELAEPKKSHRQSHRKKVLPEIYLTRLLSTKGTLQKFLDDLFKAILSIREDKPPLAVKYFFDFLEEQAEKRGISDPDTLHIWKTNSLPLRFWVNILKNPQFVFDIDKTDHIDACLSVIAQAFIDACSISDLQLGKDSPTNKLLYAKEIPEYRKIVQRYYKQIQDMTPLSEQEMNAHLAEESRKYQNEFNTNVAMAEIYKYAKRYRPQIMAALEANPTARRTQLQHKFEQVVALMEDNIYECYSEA
UniProt P16435: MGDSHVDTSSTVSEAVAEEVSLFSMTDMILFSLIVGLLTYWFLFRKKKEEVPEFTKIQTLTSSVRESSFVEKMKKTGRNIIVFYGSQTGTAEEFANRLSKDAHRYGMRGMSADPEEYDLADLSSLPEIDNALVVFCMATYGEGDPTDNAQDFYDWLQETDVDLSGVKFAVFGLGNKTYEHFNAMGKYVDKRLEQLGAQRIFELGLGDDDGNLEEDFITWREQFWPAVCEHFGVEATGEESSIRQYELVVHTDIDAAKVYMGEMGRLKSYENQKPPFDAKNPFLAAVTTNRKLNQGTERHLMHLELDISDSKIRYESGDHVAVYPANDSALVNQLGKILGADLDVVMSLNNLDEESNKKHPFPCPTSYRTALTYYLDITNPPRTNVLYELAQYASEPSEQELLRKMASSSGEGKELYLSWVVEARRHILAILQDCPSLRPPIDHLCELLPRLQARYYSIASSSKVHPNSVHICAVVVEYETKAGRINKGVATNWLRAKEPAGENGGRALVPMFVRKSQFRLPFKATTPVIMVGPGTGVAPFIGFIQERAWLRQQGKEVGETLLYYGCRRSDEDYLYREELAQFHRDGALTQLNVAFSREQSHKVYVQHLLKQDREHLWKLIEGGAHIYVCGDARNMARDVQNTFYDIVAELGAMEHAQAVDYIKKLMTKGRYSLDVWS
UniProt Q13362, whole entry, looked up: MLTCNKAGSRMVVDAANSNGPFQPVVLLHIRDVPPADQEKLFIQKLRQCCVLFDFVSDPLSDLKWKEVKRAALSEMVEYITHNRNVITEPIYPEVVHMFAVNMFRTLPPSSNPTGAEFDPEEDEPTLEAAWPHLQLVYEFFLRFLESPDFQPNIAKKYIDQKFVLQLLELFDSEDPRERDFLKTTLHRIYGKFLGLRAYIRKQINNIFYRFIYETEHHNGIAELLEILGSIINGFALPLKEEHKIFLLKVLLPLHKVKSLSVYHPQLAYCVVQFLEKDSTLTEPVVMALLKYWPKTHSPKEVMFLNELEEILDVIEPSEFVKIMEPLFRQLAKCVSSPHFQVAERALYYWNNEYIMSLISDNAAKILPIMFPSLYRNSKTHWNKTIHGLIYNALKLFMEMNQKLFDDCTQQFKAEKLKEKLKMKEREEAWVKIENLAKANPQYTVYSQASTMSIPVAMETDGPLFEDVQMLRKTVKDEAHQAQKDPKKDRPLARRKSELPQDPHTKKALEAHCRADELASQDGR
UniProt Q9NRD5, whole entry: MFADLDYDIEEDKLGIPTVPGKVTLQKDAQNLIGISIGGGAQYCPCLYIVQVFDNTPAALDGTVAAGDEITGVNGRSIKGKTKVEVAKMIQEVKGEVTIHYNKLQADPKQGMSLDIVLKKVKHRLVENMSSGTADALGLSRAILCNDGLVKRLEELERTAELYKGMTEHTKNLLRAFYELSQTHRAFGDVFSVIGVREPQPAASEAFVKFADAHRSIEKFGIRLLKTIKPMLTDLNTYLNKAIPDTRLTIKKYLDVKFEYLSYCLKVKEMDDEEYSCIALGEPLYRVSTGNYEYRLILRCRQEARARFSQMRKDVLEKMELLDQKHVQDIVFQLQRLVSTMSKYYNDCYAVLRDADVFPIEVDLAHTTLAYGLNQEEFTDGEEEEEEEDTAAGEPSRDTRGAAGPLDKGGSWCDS
UniProt Q96QC0: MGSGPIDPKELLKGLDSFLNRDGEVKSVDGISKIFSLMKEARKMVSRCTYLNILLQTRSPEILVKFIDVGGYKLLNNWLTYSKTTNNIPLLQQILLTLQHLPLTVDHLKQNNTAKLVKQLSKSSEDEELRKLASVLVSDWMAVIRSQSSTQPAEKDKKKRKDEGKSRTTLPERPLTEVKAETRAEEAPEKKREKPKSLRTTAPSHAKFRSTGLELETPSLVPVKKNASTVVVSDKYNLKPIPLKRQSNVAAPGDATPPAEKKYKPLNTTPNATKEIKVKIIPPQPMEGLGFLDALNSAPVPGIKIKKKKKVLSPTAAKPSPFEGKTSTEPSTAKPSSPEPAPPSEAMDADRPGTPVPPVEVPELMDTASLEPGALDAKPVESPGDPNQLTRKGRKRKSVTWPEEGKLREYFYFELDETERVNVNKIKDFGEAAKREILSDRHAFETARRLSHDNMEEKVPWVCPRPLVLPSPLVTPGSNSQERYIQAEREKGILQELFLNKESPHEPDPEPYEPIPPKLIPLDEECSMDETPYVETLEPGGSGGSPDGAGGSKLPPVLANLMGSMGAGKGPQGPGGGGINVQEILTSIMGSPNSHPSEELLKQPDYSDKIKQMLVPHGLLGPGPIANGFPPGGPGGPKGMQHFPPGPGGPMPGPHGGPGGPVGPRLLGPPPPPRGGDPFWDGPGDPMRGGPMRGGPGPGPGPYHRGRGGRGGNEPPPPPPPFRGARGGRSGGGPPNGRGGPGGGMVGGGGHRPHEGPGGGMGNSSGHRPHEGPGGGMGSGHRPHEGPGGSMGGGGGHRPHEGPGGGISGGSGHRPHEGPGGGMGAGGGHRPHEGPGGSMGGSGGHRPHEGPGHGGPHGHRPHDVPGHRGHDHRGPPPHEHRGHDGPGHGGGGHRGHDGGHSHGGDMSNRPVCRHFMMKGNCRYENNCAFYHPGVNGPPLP
UniProt A6NDG6: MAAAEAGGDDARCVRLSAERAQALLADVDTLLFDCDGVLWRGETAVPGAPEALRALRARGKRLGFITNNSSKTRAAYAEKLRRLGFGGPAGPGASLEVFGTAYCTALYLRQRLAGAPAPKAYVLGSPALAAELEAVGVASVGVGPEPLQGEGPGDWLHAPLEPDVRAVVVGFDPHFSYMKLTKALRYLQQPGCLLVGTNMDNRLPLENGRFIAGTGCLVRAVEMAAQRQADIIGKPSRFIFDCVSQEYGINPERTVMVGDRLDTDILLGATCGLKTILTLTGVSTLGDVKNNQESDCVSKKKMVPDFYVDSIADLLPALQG

Compound: COc1ccc(Cn2ccc3ccc(C(=O)NO)cc32)cc1
Assay: dose-dependent thermal stabilisation call (2D-TPP, DLPTP, 10% FDR) (binary (1 = stabilised)); higher = stabilised by the compound
Details: system: HL-60 intact cells; concentration range 0.04-10 µM

Target	dose-dependent thermal stabilisation call
POP5 (UniProt Q969H6)	inactive: 0
PPM1A (UniProt P35813)	inactive: 0
PLEK (UniProt P08567)	inactive: 0
PPP1R11 (UniProt O60927)	inactive: 0
PRKCI (UniProt P41743)	inactive: 0
PNPLA4 (UniProt P41247)	inactive: 0
PPID (UniProt Q08752)	inactive: 0
PLCB2 (UniProt Q00722)	inactive: 0
PKMYT1 (UniProt Q99640)	inactive: 0
POMT2 (UniProt Q9UKY4)	inactive: 0
PLD6 (UniProt Q8N2A8)	inactive: 0
PLEKHF2 (UniProt Q9H8W4)	inactive: 0
PPP1R14B (UniProt Q96C90)	inactive: 0
PRKRIP1 (UniProt Q9H875)	inactive: 0
PPM1B (UniProt O75688)	inactive: 0
PPP1CA (UniProt P62136)	inactive: 0
POGK (UniProt Q9P215)	inactive: 0
POLR1D	inactive: 0
POGZ (UniProt Q7Z3K3)	inactive: 0

Target	dose-dependent thermal stabilisation call
PLXND1 (UniProt Q9Y4D7)	inactive: 0
POR (UniProt P16435)	inactive: 0
PPP1R8 (UniProt Q12972)	inactive: 0
PIK3AP1 (UniProt Q6ZUJ8)	inactive: 0
POLR3G (UniProt O15318)	inactive: 0
POLE2 (UniProt P56282)	inactive: 0
PPM2C (UniProt Q9P0J1)	inactive: 0
PPP2R5C (UniProt Q13362)	inactive: 0
PIGW (UniProt Q7Z7B1)	inactive: 0
PPA2 (UniProt Q9H2U2)	inactive: 0
PLA2G4A (UniProt P47712)	inactive: 0
PICK1 (UniProt Q9NRD5)	inactive: 0
PPP1R10 (UniProt Q96QC0)	inactive: 0
PHF8 (UniProt Q9UPP1)	inactive: 0
POLR1C (UniProt O15160)	inactive: 0
PGP (UniProt A6NDG6)	inactive: 0
PHAX (UniProt Q9H814)	inactive: 0
PIK3C3 (UniProt Q8NEB9)	inactive: 0
PLD1 (UniProt Q13393)	inactive: 0

A portion of the results above, for reference:
Target	dose-dependent thermal stabilisation call
PPP1R14B (UniProt Q96C90)	inactive: 0
PRKRIP1 (UniProt Q9H875)	inactive: 0
PPM1B (UniProt O75688)	inactive: 0
PPP1CA (UniProt P62136)	inactive: 0
POGK (UniProt Q9P215)	inactive: 0
POLR1D	inactive: 0
POGZ (UniProt Q7Z3K3)	inactive: 0
PLXND1 (UniProt Q9Y4D7)	inactive: 0
POR (UniProt P16435)	inactive: 0
PPP1R8 (UniProt Q12972)	inactive: 0
